# Measured values from PubChem BioAssay AID1347075 (National Center for Advancing Translational Sciences (NCATS), 2019).
# Screen size: about 400,000 compounds; about 5,500 (1.4%) were called active. This list was built around the results that the source calls inconclusive (neither active nor inactive); the mix of calls is not that of the screen. Calls follow the shape of the dose curve; as a rule, active = well fitted cell-killing curve with a large enough effect; inconclusive = small, poorly fitted or top-dose-only effect, or effect the other way; inactive = flat fitted curve, though single readings scatter. Where the call is inconclusive, the potency comes from a doubtful curve fit. Where a structure was tested more than once in an assay, its records may differ in their call.
# Test: qHTS assay for MDR1-selective chemotherapeutics: Primary screen using the parental adenocarcinoma cell KB-3-1; also: nearly all actives have a fitted effect of over 60% in size
# Details: KB-3-1 viability, CellTiter-Glo ATP luminescence, 72 h; activity change, negative = cytotoxic: at 46.1 µM (top of the series)
# Outline: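 KB-3-1 parental drug-naive adenocarcinoma cells in DMEM/10% FBS, incubated 72 h at 37 C with pin-transferred compounds across a concentration series. Viability by CellTiter-Glo luminescence; concentration-response curves fitted after normalization.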
# % is scaled to controls: 0 for no effect and ±100 for the full control effect; potency is read from the fitted curve at half-maximal effect.
Compound,Potency,"activity change, negative = cytotoxic"
Cc1nc(N)c(Cc2ccc(Cl)cc2Cl)c(N)n1,"inconclusive: 29.1 µM [cytotoxic, single point]",–
CC(C)n1ncc2c(C(=O)Nc3cccc(C#N)c3)cc(C3CC3)nc21,"inconclusive: 29.1 µM [cytotoxic, single point]",–
CCCCCCCCCC[n+]1cccc2c3ccccc3ccc21,active: 1.16 µM,–
Cc1ccc(NC(=O)Cn2cccc2)cc1,–,inactive: 8.74%
C/C(=C/c1ccccc1)C(=O)N1CCN(c2ccccc2)CC1,"inconclusive: 0.231 µM [rising, full curve]",–
CCC(CO)Nc1ccc(-c2n[nH]c(=O)c3ccccc23)cc1[N+](=O)[O-] (centres undefined),–,inconclusive: -31.7% [cytotoxic]
Cc1cc(C)c(NC(=O)c2ccc(CN3CCc4ccccc4C3)cc2)c(C)c1,"inconclusive: 16.4 µM [cytotoxic, single point]",–
O=c1c2ccccc2oc2cc(OCc3ccc(F)cc3)cc(O)c12,–,inactive: -0.929%
COC(=O)[C@]12CCCCC=C1N(CCC1=CCCCC1)C(=O)[C@H](CC(=O)NCC1CCCCC1)C2,"inconclusive: 23.1 µM [cytotoxic, single point]",–
COc1ccc(OC)c(C(C)NC(=O)C23CC4CC(CC(C4)C2)C3)c1 (centres undefined),"inconclusive: 0.461 µM [cytotoxic, partial curve]",–
Nc1cc(S(=O)(=O)N2CCCCC2)ccc1N1CCCCC1,"inconclusive: 14.6 µM [cytotoxic, single point]",–
CCOC(=O)C1CCCN(C(=O)c2cc(-c3ccc(C)cc3)on2)C1 (centres undefined),–,inactive: -2.29%
CCn1ncc(C2=NOC(C(=O)NCc3ccc(OC)cc3)C2)c1C (centres undefined),"inconclusive: 23.1 µM [cytotoxic, single point]",–
O=C(CNC(=O)c1ccccc1)N/N=C/c1cc(Br)ccc1O,"inconclusive: 32.6 µM [cytotoxic, single point]",–
CC(C)Oc1ccc(CNC(=O)C2CCN(C(=O)N3CCOc4ccc(Cl)cc43)CC2)cc1,"inconclusive: 29.1 µM [cytotoxic, single point]",–
CCOC(=O)C1(Nc2nccs2)Sc2ccccc2NC1=O (centres undefined),active: 5.8 µM,–
CSc1ncccc1C(=O)Nc1cc(Cl)ccc1N1CCOCC1,"inconclusive: 18.4 µM [cytotoxic, single point]",–
Cc1cccc(C(=O)NNC(=O)c2ccc(Cl)cc2)c1O,"inconclusive: 29.1 µM [cytotoxic, partial curve, poor fit]",–
O=C(c1ccncc1)N1CCN(CCc2ccccc2)CC1,–,inactive: -8.98%
Cc1ccc(Cl)cc1N1CCN(C(=O)C(C)n2ncn3cccc3c2=O)CC1 (centres undefined),–,inconclusive: -5.56%
CCCCCCN1C[C@@H](O)[C@H](n2cc(-c3ccc(F)cc3)nn2)C[C@@H]1c1ccccc1,–,inactive: -15.9%
COc1ccccc1NC(=O)Nc1ccc(-n2ccc(C(F)(F)F)n2)cc1,"inconclusive: 29.1 µM [cytotoxic, single point]",–
CCCCn1c(NCCO)nc2ccccc21,"inconclusive: 23.1 µM [rising, single point]",–

# Not a retest: an excerpt of the list.
Compound,Potency,"activity change, negative = cytotoxic"
CCCCCCCCCC[n+]1cccc2c3ccccc3ccc21,active: 1.16 µM,–
Cc1ccc(NC(=O)Cn2cccc2)cc1,–,inactive: 8.74%
C/C(=C/c1ccccc1)C(=O)N1CCN(c2ccccc2)CC1,"inconclusive: 0.231 µM [rising, full curve]",–
CCC(CO)Nc1ccc(-c2n[nH]c(=O)c3ccccc23)cc1[N+](=O)[O-] (centres undefined),–,inconclusive: -31.7% [cytotoxic]
Cc1cc(C)c(NC(=O)c2ccc(CN3CCc4ccccc4C3)cc2)c(C)c1,"inconclusive: 16.4 µM [cytotoxic, single point]",–
O=c1c2ccccc2oc2cc(OCc3ccc(F)cc3)cc(O)c12,–,inactive: -0.929%
COC(=O)[C@]12CCCCC=C1N(CCC1=CCCCC1)C(=O)[C@H](CC(=O)NCC1CCCCC1)C2,"inconclusive: 23.1 µM [cytotoxic, single point]",–
COc1ccc(OC)c(C(C)NC(=O)C23CC4CC(CC(C4)C2)C3)c1 (centres undefined),"inconclusive: 0.461 µM [cytotoxic, partial curve]",–
Nc1cc(S(=O)(=O)N2CCCCC2)ccc1N1CCCCC1,"inconclusive: 14.6 µM [cytotoxic, single point]",–
CCOC(=O)C1CCCN(C(=O)c2cc(-c3ccc(C)cc3)on2)C1 (centres undefined),–,inactive: -2.29%
CCn1ncc(C2=NOC(C(=O)NCc3ccc(OC)cc3)C2)c1C (centres undefined),"inconclusive: 23.1 µM [cytotoxic, single point]",–
O=C(CNC(=O)c1ccccc1)N/N=C/c1cc(Br)ccc1O,"inconclusive: 32.6 µM [cytotoxic, single point]",–
CC(C)Oc1ccc(CNC(=O)C2CCN(C(=O)N3CCOc4ccc(Cl)cc43)CC2)cc1,"inconclusive: 29.1 µM [cytotoxic, single point]",–
CCOC(=O)C1(Nc2nccs2)Sc2ccccc2NC1=O (centres undefined),active: 5.8 µM,–
CSc1ncccc1C(=O)Nc1cc(Cl)ccc1N1CCOCC1,"inconclusive: 18.4 µM [cytotoxic, single point]",–
Cc1cccc(C(=O)NNC(=O)c2ccc(Cl)cc2)c1O,"inconclusive: 29.1 µM [cytotoxic, partial curve, poor fit]",–
O=C(c1ccncc1)N1CCN(CCc2ccccc2)CC1,–,inactive: -8.98%
Cc1ccc(Cl)cc1N1CCN(C(=O)C(C)n2ncn3cccc3c2=O)CC1 (centres undefined),–,inconclusive: -5.56%
CCCCCCN1C[C@@H](O)[C@H](n2cc(-c3ccc(F)cc3)nn2)C[C@@H]1c1ccccc1,–,inactive: -15.9%

# Going on with the list.

Compound,Potency,"activity change, negative = cytotoxic"
COc1ccc(C(=O)Nc2nc3ccccc3s2)c(OC)c1,active: 7.31 µM,–
O=C(NCCSc1c(-c2ccc(Cl)cc2)[nH]c2ccccc12)c1ccc(S(=O)(=O)N2CCOCC2)cc1,–,inactive: -5.12%
NC(Cc1ccc(Cl)cc1)c1csc(NC(=O)NCC2CCCCC2)n1 (centres undefined),"inconclusive: 29.1 µM [cytotoxic, single point]",–
O=S(=O)(Nc1ccc(-c2ccc(N3CCCCCC3)nn2)cc1)c1ccc(C(F)(F)F)cc1,–,inactive: -1.4%
Cc1cc(C(F)(F)F)c2c(N)c(C(=O)Nc3c(Cl)cccc3Cl)sc2n1,–,inactive: -12.5%
CC(C)n1cc(/C=C/c2cc[n+](C)cc2)c2ccccc21,active: 1.3 µM,–
COc1ccc(CN2C(=O)c3cccc4cccc(c34)C2=O)cc1,–,inactive: 10.3%
Cc1[nH]n(-c2ccc([N+](=O)[O-])cc2)c(=O)c1C=NCCN1CCN(C(=O)c2ccccc2)CC1,"inconclusive: 7.31 µM [cytotoxic, partial curve, poor fit]",–
CCN(CCNC(=O)C1CCCN(Cc2nc(-c3ccc(OC)cc3)oc2C)C1)c1ccccc1 (centres undefined),"inconclusive: 29.1 µM [cytotoxic, single point]",–
Cc1ccc(-n2nc3c(=O)n(CCCC(=O)NCc4ccc(F)cc4)nc(C)c3c2C)cc1,–,inactive: -4.82%
C(=C\c1cccs1)/c1ccccn1,"inconclusive: 32.6 µM [cytotoxic, single point]",–
Cc1noc2ncnc(N3CCCC(C(=O)NCCC(C)C)C3)c12 (centres undefined),–,inactive: -4.29%
COc1ccc(NC(=O)CN(C)C(=O)C2(c3ccccc3)CCCC2)cc1,"inconclusive: 20.6 µM [cytotoxic, single point]",–
Cc1ccc(S(=O)(=O)c2c(Nc3ccccc3)sc(C(=O)c3ccc4c(c3)OCO4)c2N)cc1,"inconclusive: 18.4 µM [cytotoxic, single point]",–
Cc1oc(-c2ccccc2F)nc1CSCC(=O)NC1CCC(C)CC1 (centres undefined),"inconclusive: 18.4 µM [cytotoxic, single point]",–
COC(=O)CNC(c1ccccc1Cl)c1cc(Br)ccc1NS(=O)(=O)c1ccc(C)cc1 (centres undefined),"inconclusive: 18.4 µM [cytotoxic, single point]",–
CC(=O)c1cccc(NS(=O)(=O)c2ccc(C(=O)Nc3ccccc3)cc2)c1,"inconclusive: 5.8 µM [cytotoxic, full curve]",–
COc1cc(NC(=O)c2cc(-c3ccccc3)nc3c2cnn3C(C)C)cc(OC)c1OC,"inconclusive: 20.6 µM [cytotoxic, single point]",–
COc1ccccc1NC(=S)N1CCN(c2ccccc2F)CC1,–,inactive: -0.754%
Cc1ccccc1Cn1c(=N)n(CC(=O)c2ccc([N+](=O)[O-])cc2)c2ccccc21,"inconclusive: 18.4 µM [cytotoxic, single point]",–
O=[N+]([O-])c1cc(S(=O)(=O)C(F)(F)F)ccc1Sc1nc2ccccc2[nH]1,"inconclusive: 18.4 µM [cytotoxic, single point]",–
CCCCCOc1ccc(C2C(C(=O)c3ccc(C)o3)=C(O)C(=O)N2c2cc(C)on2)cc1 (centres undefined),"inconclusive: 16.4 µM [cytotoxic, single point]",–
O=C(NC1CCCCC1)Sc1ccc(Cl)cc1,"inconclusive: 18.4 µM [cytotoxic, single point]",–

Compound,Potency,"activity change, negative = cytotoxic"
CCc1ccc(Nc2nc(N3CCOCC3)nc(N3CCOCC3)n2)cc1,"inconclusive: 29.1 µM [cytotoxic, single point]",–
O=C(N/N=C\c1cccnc1)c1cc(-c2ccccc2)nc2c(Cl)cccc12,"inconclusive: 25.9 µM [cytotoxic, single point]",–
Cc1ccc(NS(=O)(=O)c2ccc(-c3cnc(C4CC4)o3)cc2)cc1,active: 18.4 µM,–
Cc1cc(C(C)(C)C)cc(C)c1S(=O)(=O)N1CC(=O)Nc2ccccc21,–,inactive: 0.687%
NS(=O)(=O)c1ccc(CCNC(=O)CSc2ncnc3ccccc23)cc1,–,inactive: 19.1%
C=CCN(C(=O)c1csnn1)C(C(=O)NC1CCCC1)c1c(F)cccc1Cl (centres undefined),–,inactive: 0.224%
COc1ccc(NS(=O)(=O)c2ccc(C(=O)N3CCCCCC3)cc2)cc1,"inconclusive: 9.2 µM [cytotoxic, partial curve]",–
Cc1cccc(C(=O)Nc2sc3c(c2C(=O)O)CCCC3)c1,active: 6.51 µM,–
Cc1ccccc1NC(=S)NCCSc1ccc(Cl)cc1,–,inactive: -8.16%
O=C(NC(=S)Nc1ncccn1)c1ccc(F)cc1,"inconclusive: 0.461 µM [rising, full curve, poor fit]",–
COc1ccc(N(CC(=O)N2CCN(c3ccc(F)cc3)CC2)S(=O)(=O)c2c(C)nn(C)c2C)cc1,–,inactive: 1.03%
Cn1c(=O)oc2cc(S(=O)(=O)NC(Cc3ccccc3)C(=O)N3CCCCC3)ccc21 (centres undefined),"inconclusive: 10.3 µM [rising, partial curve, poor fit]",–
CCn1cc(C(=O)NCC(C)C)c(=O)c2cc(F)c(N3CCN(C)CC3)cc21,–,inactive: -0.915%
CC(=O)c1c(C)oc2ccc(N(C(=O)c3ccncc3)S(=O)(=O)c3ccc(F)cc3C)cc12,"inconclusive: 18.4 µM [cytotoxic, single point]",–
COc1cc(Br)cc(/C=N/NC(=O)Cc2ccc(C(F)(F)F)cc2[N+](=O)[O-])c1O,"inconclusive: 7.31 µM [cytotoxic, full curve, poor fit]",–
CCOc1ccc(C(C(=O)NCC2CCCO2)N(Cc2cccnc2)C(=O)c2snc(C(N)=O)c2N)cc1 (centres undefined),"inconclusive: 18.4 µM [rising, partial curve, poor fit]",–
CCOc1ccc(OCC)c(NC(=O)CSc2nc3c(c(=O)n(C)c(=O)n3C)n2C(C)C)c1,"inconclusive: 25.9 µM [cytotoxic, single point]",–
COc1cc(Cl)c(NC(=O)CN(C)S(=O)(=O)c2ccc3[nH]c4c(c3c2)CCCC4)c(OC)c1,–,inactive: -15.8%
COC(=O)c1ccc(CNC(=O)c2ccc(OCC(=O)N3CCOCC3)c(OC)c2)cc1,–,inactive: -14%
CC(C)CC1C(=O)N(Cc2cn(CCC3OCCCO3)nn2)CCS(=O)(=O)N1Cc1ccc(-c2ccc(Cl)c(Cl)c2)cc1 (centres undefined),"inconclusive: 29.1 µM [cytotoxic, single point]",–
COc1cc(-c2nc3cnccn3c2Nc2ccc(C(C)C)cc2)ccc1O,–,inactive: 7.36%
CNC(=O)N(C1=NCC(C)S1)c1ccc(F)cc1F (centres undefined),"inconclusive: 20.6 µM [cytotoxic, single point]",–
COc1ccc([C@H]2[C@H](C(=O)OC(C)(C)C)N3N=Cc4ccccc4C3C23C(=O)c2ccccc2C3=O)c(OC)c1 (some centres undefined),"inconclusive: 18.4 µM [rising, single point]",–
